Experimental data from PubChem BioAssay AID1347423 (Functional Genomics Laboratory (NCATS/FGL), 2020).
Among all 52,000 sequences or so, about 210 (0.4%) were called active.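 How the source made its calls: active means gene whose silencing raises cell survival under the drug, median off-target-corrected z-score across its silencing RNAs 2 or more; inactive means the rest.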 The list shows a part of the results.

Experiment: Resistance to Poly (ADP-Ribose) Polymerase inhibitor: Gene Identification via Genome-wide siRNA Screen
Conditions: mouse BRCA2 R2336H ES cells, olaparib, CellTiter-Glo viability; active compounds read high
In short: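 Mouse BRCA2 R2336H ES cells were reverse-transfected with siRNA (20 nM final), treated at 48 h with 500 nM olaparib, and read by CellTiter-Glo after 72 h. Scores: MAD-based z per siRNA, median per gene, seed off-target correction.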

Sequence | z-score
GGAUAUCAGGGUUGUUAAGTT against Txnl4b | inactive: 0.66
GCUACCUUUCUGAACAUACTT against Lcp2 | inactive: -0.261
GGACAAAAAUGGCAAUACUTT against 4930430A15Rik | inactive: -0.54
CCGCGUUCACAUUCUCUAATT against Hfe | inactive: -0.523
GCCAACCUAGCAACUCAAGTT against 4933417L02Rik | inactive: -0.11
GGGACCAUGAAUAAUGGCCTT against Snai1 | inactive: 1.22
GCUUCAAGUUCGUACGCCUTT against Eif2b1 | inactive: 3.42
CCCUAACAGCUGACGAUAATT against Tm7sf3 | inactive: -0.0034
GGAUCAAGUUGCCUCCGUUTT against Olfr1097 | inactive: -1.82
GGAUCAUAGUGUCUUUCAGTT against Dnaja4 | inactive: -0.232
GGGCACACUUCUCUUCAUUTT against Olfr152 | inactive: -0.838
GGAAAGUGCAUCAUAGACATT against Thrb | inactive: -0.23
CGAUCCUUCUGUCCUGGAUTT against Ever2 | inactive: -1.45
GGUUUUGAAGCUGAAAAUATT against Zfp60 | inactive: -0.599
CCAGUACAGAUGUGUUAAATT against BC037393 | inactive: -0.761
GCUAGGUAUACAGCCAAAGTT against 4633402N23Rik | inactive: 0.44
GGACUUUGACAGCUUAGGATT against Acate3 | inactive: -0.561
CCUCUUCUGCGCGGAUUUGTT against Gpr120 | inactive: -1.36
CCAAGGACAACCCUAUCAGTT against Cdsn | inactive: 0.668
GGUGAACAUCUUCCAUUAUTT against Krtap3-2 | inactive: -2.12
CGUGUAGCAAUGAGAUAUUTT against Trpc5 | inactive: -0.313
GCCAAGACAUCAGAAGGAUTT against Nrxn1 | inactive: -0.685
GGGCCUUACUCAAAUCCCUTT against Fbln5 | inactive: -0.267
CGUUGGUCUUCACUGAUAATT against 6030440P17Rik | inactive: -1.88
GCAACAAAUCAGAUUUGACTT against Dhdh | inactive: -0.38
GCUAUGAAAAGUGUCUGCCTT against Cul4b | inactive: -0.154

Sequence | z-score
UCUAGAAUGAGGGUCUUUUTT against Il19 | inactive: 0.327
GCAGCUAAUUAAGUCAAGGTT against Barhl1 | inactive: 1.19
GGACCAUGAGACGAUGGGATT against Dysf | inactive: 1.67
GCCAAUGUGGAAUCAAAGGTT against Ms4a6c | inactive: -0.248
GGGAAAGGAAACAUGGAACTT against Apom | inactive: 1.27
CCAGUGCAGGACCUCAUUUTT against Sod1 | inactive: -0.971
GGUAUUUGGAAUCCAAUUGTT against Maged2 | inactive: 0.0194
GGUUGAAUCAAGAGGAAAATT against 1300007B12Rik | inactive: 1.35
CGAGAUUUGGAAUGCCCUGTT against Fez2 | inactive: -0.342
GGUCAUAGAAGGGUUCAGCTT against Sbsn | inactive: 0.486
GGUCUCAUUAUGACAGUGATT against Orc2l | inactive: -1.6
CCCAGAGAACUAGAAACGATT against 9430097D07Rik | inactive: 0.0949
GGAUGACGUACGCUUCAAGTT against Ceecam1 | inactive: 1.77
GGUCUUUCCUAAUAAGCAGTT against F830208F22Rik | inactive: -0.31
GCAUUAGGUAUGGUCAAGATT against Ris2 | inactive: -1.87
GGCAGCACCAUCGUCUAAUTT against 4930432E11Rik | inactive: -1.43
CGUAAUCUUCAUCUUAGUATT against Olfr614 | inactive: 1.22
GGACCCAGCAGUCAAGAUATT against 9930038B18Rik | inactive: 0.872
GGAAGAAUUUCGUACUAUGTT against Papolb | inactive: -0.59
CCACCUUCCAUGGUCAGUATT against Xpo4 | inactive: -2.26
GCUACCCAUGAGCUUUCGATT against S100a3 | inactive: 0.451
GGAUAAAACUAGAAAUGGGTT against Edem1 | inactive: 1.28
GCACAAGGAAAUCUAUCUATT against Cenpj | inactive: -0.461
GGUGCAUUUUGUCUAUGAUTT against 6330527O06Rik | inactive: -0.24
GCGCAAGGAGAUCAUAGUCTT against 4930564N15Rik | inactive: -0.94
GGACUGAGGAAGAAUUUAATT against Grp58 | inactive: -0.954

Reformatted: results already given
GCCAACCUAGCAACUCAAGTT against 4933417L02Rik
  z-score: inactive: -0.11
GGGACCAUGAAUAAUGGCCTT against Snai1
  z-score: inactive: 1.22
GCUUCAAGUUCGUACGCCUTT against Eif2b1
  z-score: inactive: 3.42
